Some results were stated once for a whole list of compounds, not compound by compound. For at least one compound, name, drawing or mass did not settle the structure. Some ranges recur; such a range may be that of the whole group of compounds.
Assays:
[1] = test system: Fusarium culmorum Foot rot of cereals; test: In vitro test on Potato Dextrose Agar, radial growth: Fusarium culmorum; assay type: cell-based; settings: 300 ppm, radial growth after seven days, 25° C., 60% relative humidity
Fusarium culmorum = test: Greenhouse preventive test: Fusarium culmorum test in wheat; assay type: in vivo; settings: 500 ppm; preventive spray on wheat, inoculated one day after treatment; disease severity rating
[2] = test system: Colletotrichum capsici (anthracnose); test: In vitro test on Potato Dextrose Agar, radial growth: Colletotrichum capsici; assay type: cell-based; settings: 300 ppm, radial growth after seven days, 25° C., 60% relative humidity
[3] = test system: Septoria lycopersici (Leaf spot of tomato); test: In vitro test on Potato Dextrose Agar, radial growth: Septoria lycopersici; assay type: cell-based; settings: 300 ppm, radial growth after seven days, 25° C., 70% relative humidity
[4] = test system: Botrytis cinerea (Gray mold); test: In vitro test on Potato Dextrose Agar, radial growth: Botrytis cinerea; assay type: cell-based; settings: 300 ppm, radial growth after seven days, 22° C., 90% relative humidity
Pyricularia oryzae = assay type: in vivo, Pyricularia oryzae on rice; settings: 500 ppm; preventive spray on rice, inoculated one day after treatment; disease severity rating
[5] = test system: Pyricularia oryzae (Rice blast); assay type: cell-based; settings: 300 ppm, radial growth after seven days, 25° C., 60% relative humidity

SMILES | control compared to untreated check [1] | Efficacy (% control) compared to untreated check (Pyricularia oryzae) | also measured
CCN(C)C=Nc1cc(C)c(N(C)c2ccc(C(C)(C)C)cc2)cc1C [Compound 31] | 70-100% |  | Efficacy (% control) compared to untreated check (Fusarium culmorum): 70-100%
CCN(C)C=Nc1cc(C)c(Nc2ccccc2F)cc1C [Compound 35] | 70-100% |  | Efficacy (% control) compared to untreated check (Fusarium culmorum): 70-100%
CCN(C)C=Nc1cc(C)c(N(C)c2cccc(Cl)c2)cc1Cl [Compound 53, N′-(2-Chloro-4-((3-chlorophenyl) (methyl)amino)-5-methylphenyl)-N-ethyl-N-methylformimidamide] | 70-100% |  | control compared to untreated check [2]: 70 to 100%; control compared to untreated check [3]: 80-100%; control compared to untreated check [4]: 70 to 100%
CCN(C)C=Nc1cc(C)c(Nc2ccccc2Br)cc1C [Compound 54] | 70-100% | 70-100% | 
CCN(C)C=Nc1cc(C)c(N(C)c2ccccc2C(F)(F)F)cc1C [Compound 58] | 70-100% | 70-100% | 
CCN(C)C=Nc1cc(C)c(N(C)c2ccccc2C(F)(F)F)cc1Cl [Compound 80] | 70-100% | 70-100% | 
CCN(C)C=Nc1cc(C)c(Nc2cccc(F)c2)cc1Cl [Compound 82] | 70-100% |  | Efficacy (% control) compared to untreated check (Fusarium culmorum): 70-100%
CCN(C)C=Nc1cc(C)c(N(C)c2cccc(SC(F)(F)F)c2)cc1C [Compound 129] | 70-100% | 70-100% | 
CCN(C)C=Nc1cc(C)c(Nc2cccc(S(F)(F)(F)(F)F)c2)cc1Cl [Compound 134] |  |  | control compared to untreated check [5]: 70 to 100%
CCN(C)C=Nc1cc(C)c(Nc2cc(C(F)(F)F)cc(C(F)(F)F)c2)cc1Cl [Compound 138] |  | 70-100% | 
CCN(C)C=Nc1cc(C)c(Nc2cc(F)ccc2F)cc1C [Compound 151] | 70-100% |  | Efficacy (% control) compared to untreated check (Fusarium culmorum): 70-100%
CCN(C)C=Nc1cc(C)c(Nc2cc(F)ccc2F)cc1Cl [Compound 152] |  | 70-100% | 
CCN(C)C=Nc1cc(C)c(N(C)c2cc(C)ccc2C(F)(F)F)cc1C [Compound 158] | 70-100% |  | Efficacy (% control) compared to untreated check (Fusarium culmorum): 70-100%
CCN(C)C=Nc1cc(C)c(Nc2ccc(F)c(OC(F)(F)C(F)F)c2)cc1Cl [Compound 172] | 70-100% |  | control compared to untreated check [5]: 70 to 100%
CCN(C)C=Nc1cc(C)c(N(C(C)=O)c2ccccc2Cl)cc1Cl [Compound 182] |  |  | control compared to untreated check [5]: 70 to 100%
CCN(C)C=Nc1cc(C)c(N(c2cccc(OC)c2)S(C)(=O)=O)cc1Cl [Compound 194] |  |  | control compared to untreated check [5]: 70 to 100%
CCC(=O)N(c1cc(Cl)c(N=CN(C)CC)cc1C)c1ccccc1F [Compound 203] |  |  | control compared to untreated check [5]: 70 to 100%
